No constants are given. Whether binding was seen depends on the method and setting. Some binding calls cover weakened binding; strength is not graded here.
Biological target: Cynomolgus monkey IL-18Rα, biotinylated (cynomolgus monkey)
Experiment: SPR, biotinylated receptor on streptavidin capture chip, single-cycle kinetics, FIG. 37A

Sequences of proteins named here, by UniProt entry; tags and fusion partners are left off. A change or cut given only in a name is not applied to a line headed by its entry.
UniProt Q14116: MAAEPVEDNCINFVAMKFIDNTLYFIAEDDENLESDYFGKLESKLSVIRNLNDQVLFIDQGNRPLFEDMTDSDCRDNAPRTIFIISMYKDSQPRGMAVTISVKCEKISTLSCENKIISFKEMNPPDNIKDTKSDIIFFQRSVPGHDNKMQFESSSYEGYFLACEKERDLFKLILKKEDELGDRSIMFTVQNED

- binding: binds
Substance: Human Interleukin-18 (mature form), wild type (from UniProt Q14116 37-193) (ligand)

Reference: patent publication US20230277625A1
